In paper PMC9234244 one finds binding data, which are given here for one molecule.

No constants are given. Whether binding was seen depends on the method and setting. Binding seen in cells or lysates may run through a third protein. For some of these results: Binding calls can cover weak binding; strength is not graded here. Where a sequence is shown, tags or fusion partners need not be part of it.

Assay in all cases: co-IP; HEK293T cells co-transfected; whole cell lysates incubated with the antibody at 4 °C overnight, then protein G or protein A beads 6 h at 4 °C; Western blotting
(In western blotting, separated proteins are transferred to a membrane and probed.)

In experiment [1] the target is 3× FLAG-VWC domain of FSTL1.
In experiment [2] the target is 3× FLAG-FS domain of FSTL1.
The target in experiment [3] is EC domain of FSTL1 (extracellular calcium–binding domain).
The next experiment deals with EC–VWC domains of FSTL1.

B1: SNAP-tagged FZD4 (SNAP-FZD4) (receptor, UniProt Q61088 37-537)
chain: FGDEEERRCDPIRIAMCQNLGYNVTKMPNLVGHELQTDAELQLTTFTPLIQYGCSSQLQFFLCSVYVPMCTEKINIPIGPCGGMCLSVKRRCEPVLREFGFAWPDTLNCSKFPPQNDHNHMCMEGPGDEEVPLPHKTPIQPGEECHSVGSNSDQYIWVKRSLNCVLKCGYDAGLYSRSAKEFTDIWMAVWASLCFISTTFTVLTFLIDSSRFSYPERPIIFLSMCYNIYSIAYIVRLTVGRERISCDFEEAAEPVLIQEGLKNTGCAIIFLLMYFFGMASSIWWVILTLTWFLAAGLKWGHEAIEMHSSYFHIAAWAIPAVKTIVILIMRLVDADELTGLCYVGNQNLDALTGFVVAPLFTYLVIGTLFIAAGLVALFKIRSNLQKDGTKTDKLERLMVKIGVFSVLYTVPATCVIACYFYEISNWALFRYSADDSNMAVEMLKIFMSLLVGITSGMWIWSAKTLHTWQKCSNRLVNSGKVKREKRGNGWVKPGKGNETVV
modifications: BG-PEG12-Biotin on the SNAP tag (cell surface labelling experiment only)
Consider B1, for which the binding result is recorded as “no binding” in experiment [1], “no binding” in experiment [2], “binds” in experiment [3] and “binds” with EC–VWC domains of FSTL1.
